Laboratory results from article PMC9296036, “A peptide interfering with the dimerization of oncogenic KITENIN protein and its stability suppresses colorectal tumour progression” (Clinical and Translational Medicine, 2022).
No constants are given. Whether binding was seen depends on the method and setting. In cells and extracts the contact can be indirect. Here binding means that the protein was enriched with, or labelled near, the bait; the list need not be complete. Sequences can lack the tags named with a protein.

The chains behind the UniProt entries cited, without tags or fusion partners.
UniProt Q9HD67: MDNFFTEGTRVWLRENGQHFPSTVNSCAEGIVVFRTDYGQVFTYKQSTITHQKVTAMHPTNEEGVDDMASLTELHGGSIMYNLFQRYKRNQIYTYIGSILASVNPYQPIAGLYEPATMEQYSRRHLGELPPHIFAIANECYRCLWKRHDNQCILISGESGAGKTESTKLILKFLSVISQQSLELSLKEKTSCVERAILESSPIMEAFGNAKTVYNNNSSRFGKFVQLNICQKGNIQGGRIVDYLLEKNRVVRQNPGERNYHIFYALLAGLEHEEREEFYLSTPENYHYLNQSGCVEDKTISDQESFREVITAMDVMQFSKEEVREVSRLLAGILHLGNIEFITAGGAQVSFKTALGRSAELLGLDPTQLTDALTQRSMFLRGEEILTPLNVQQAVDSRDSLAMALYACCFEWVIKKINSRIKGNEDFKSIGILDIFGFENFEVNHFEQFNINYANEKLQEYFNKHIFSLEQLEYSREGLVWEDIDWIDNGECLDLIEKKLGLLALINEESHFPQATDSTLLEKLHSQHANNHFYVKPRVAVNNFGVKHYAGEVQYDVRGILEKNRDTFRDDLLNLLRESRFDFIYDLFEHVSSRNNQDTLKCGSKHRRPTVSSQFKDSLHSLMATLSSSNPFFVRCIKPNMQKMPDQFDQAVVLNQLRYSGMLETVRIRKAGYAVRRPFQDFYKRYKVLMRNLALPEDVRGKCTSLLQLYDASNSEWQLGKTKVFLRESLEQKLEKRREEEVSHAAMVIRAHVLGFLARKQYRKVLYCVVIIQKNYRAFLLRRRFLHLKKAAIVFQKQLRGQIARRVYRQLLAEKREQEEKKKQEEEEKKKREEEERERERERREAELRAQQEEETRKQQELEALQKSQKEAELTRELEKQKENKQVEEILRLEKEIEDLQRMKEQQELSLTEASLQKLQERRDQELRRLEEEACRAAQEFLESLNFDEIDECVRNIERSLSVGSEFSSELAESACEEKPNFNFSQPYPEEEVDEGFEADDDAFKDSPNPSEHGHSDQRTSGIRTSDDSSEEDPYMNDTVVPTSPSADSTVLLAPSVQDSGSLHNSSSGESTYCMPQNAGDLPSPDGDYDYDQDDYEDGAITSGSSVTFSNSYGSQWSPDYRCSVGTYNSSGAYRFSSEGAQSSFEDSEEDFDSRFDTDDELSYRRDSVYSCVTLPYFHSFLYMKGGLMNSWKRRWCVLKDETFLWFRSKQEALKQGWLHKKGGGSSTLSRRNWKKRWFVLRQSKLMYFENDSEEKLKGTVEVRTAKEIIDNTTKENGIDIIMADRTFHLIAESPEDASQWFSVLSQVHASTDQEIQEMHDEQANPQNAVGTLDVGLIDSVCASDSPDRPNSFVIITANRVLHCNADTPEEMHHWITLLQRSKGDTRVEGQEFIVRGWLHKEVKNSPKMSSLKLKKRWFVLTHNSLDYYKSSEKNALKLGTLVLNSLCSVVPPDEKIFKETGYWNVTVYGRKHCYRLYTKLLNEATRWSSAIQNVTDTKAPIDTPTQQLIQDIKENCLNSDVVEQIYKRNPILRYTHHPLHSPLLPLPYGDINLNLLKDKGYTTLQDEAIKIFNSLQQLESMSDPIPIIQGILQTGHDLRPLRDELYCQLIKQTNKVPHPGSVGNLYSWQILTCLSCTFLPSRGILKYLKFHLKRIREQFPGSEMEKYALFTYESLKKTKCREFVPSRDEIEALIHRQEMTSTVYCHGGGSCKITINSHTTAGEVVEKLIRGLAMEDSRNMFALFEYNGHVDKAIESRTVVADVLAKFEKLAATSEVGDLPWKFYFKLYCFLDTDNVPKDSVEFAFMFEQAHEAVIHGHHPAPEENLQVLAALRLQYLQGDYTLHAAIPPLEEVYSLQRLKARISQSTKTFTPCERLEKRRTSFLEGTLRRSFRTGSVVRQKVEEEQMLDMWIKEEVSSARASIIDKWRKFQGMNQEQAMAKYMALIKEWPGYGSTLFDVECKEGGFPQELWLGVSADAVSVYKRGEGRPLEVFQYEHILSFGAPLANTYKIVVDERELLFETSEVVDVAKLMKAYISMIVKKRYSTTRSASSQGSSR

T1: V5-tagged KITENIN (UniProt Q8TAA9)
T1 sequence: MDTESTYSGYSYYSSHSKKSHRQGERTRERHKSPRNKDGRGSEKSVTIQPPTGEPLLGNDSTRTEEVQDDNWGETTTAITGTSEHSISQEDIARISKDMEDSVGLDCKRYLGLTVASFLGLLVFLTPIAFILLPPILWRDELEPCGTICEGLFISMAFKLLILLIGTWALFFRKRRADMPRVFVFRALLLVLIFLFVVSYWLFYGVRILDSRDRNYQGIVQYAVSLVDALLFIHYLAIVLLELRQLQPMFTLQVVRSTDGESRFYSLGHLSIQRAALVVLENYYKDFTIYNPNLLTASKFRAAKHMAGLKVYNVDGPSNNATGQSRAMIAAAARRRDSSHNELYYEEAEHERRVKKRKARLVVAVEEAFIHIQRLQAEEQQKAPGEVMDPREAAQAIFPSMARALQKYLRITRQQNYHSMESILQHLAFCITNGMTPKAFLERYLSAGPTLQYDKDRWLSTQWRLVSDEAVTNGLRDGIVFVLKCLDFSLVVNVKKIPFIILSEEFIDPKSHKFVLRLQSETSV

T2: Myc-tagged KITENIN (KAI1 C-terminal interacting tetraspanin; Vangl1) (UniProt Q8TAA9)
T2 sequence: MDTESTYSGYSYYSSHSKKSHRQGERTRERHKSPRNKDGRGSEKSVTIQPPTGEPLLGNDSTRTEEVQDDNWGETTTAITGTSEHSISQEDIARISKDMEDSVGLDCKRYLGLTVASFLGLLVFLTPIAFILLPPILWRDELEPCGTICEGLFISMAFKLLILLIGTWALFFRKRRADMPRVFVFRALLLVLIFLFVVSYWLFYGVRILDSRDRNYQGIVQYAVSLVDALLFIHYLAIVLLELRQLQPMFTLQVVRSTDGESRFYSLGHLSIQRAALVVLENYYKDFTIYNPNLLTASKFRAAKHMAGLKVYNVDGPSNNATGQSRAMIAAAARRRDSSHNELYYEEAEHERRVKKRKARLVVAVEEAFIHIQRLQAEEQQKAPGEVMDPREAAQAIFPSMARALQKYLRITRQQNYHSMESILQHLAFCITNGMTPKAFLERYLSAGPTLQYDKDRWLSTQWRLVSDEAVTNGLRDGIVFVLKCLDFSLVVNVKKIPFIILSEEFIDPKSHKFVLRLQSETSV


What was measured:
V5-tagged KITENIN = molecular target: T1, V5-tagged KITENIN; test: affinity purification with mass spectrometry; Caco2/KITENIN-V5 cells treated with scr-peptide or KDIP, IP with anti-V5 antibody, SDS-PAGE, Coomassie blue, bands that changed cut out for peptide mass fingerprinting
[1] = molecular target: T2, Myc-tagged KITENIN (KAI1 C-terminal interacting tetraspanin; Vangl1); test: affinity purification with mass spectrometry; lysate of KITENIN-myc-overexpressing 293T cells precipitated with Myc-Tag antibody, SDS-PAGE, 130-kDa band identified by peptide mass fingerprinting (MALDI-TOF)

binding (V5-tagged KITENIN)	binding [1]	Molecule
binds	–	myosin-X (Myo10), endogenous (from UniProt Q9HD67 1-2058)
–	binds	endogenous KITENIN (natural protein, UniProt Q8TAA9 1-524, looked up, KITENIN (Vangl1), endogenous; also called endogenous KITENIN dimer; source: endogenous, HEK293T, HCT116 or Caco2 lysate) MDTESTYSGYSYYSSHSKKSHRQGERTRERHKSPRNKDGRGSEKSVTIQPPTGEPLLGNDSTRTEEVQDDNWGETTTAITGTSEHSISQEDIARISKDMEDSVGLDCKRYLGLTVASFLGLLVFLTPIAFILLPPILWRDELEPCGTICEGLFISMAFKLLILLIGTWALFFRKRRADMPRVFVFRALLLVLIFLFVVSYWLFYGVRILDSRDRNYQGIVQYAVSLVDALLFIHYLAIVLLELRQLQPMFTLQVVRSTDGESRFYSLGHLSIQRAALVVLENYYKDFTIYNPNLLTASKFRAAKHMAGLKVYNVDGPSNNATGQSRAMIAAAARRRDSSHNELYYEEAEHERRVKKRKARLVVAVEEAFIHIQRLQAEEQQKAPGEVMDPREAAQAIFPSMARALQKYLRITRQQNYHSMESILQHLAFCITNGMTPKAFLERYLSAGPTLQYDKDRWLSTQWRLVSDEAVTNGLRDGIVFVLKCLDFSLVVNVKKIPFIILSEEFIDPKSHKFVLRLQSETSV
